Assay results published in PMC12611763.
These are yes or no findings as the source states them, for the method shown. In cells and extracts the contact can be indirect. Some results given as binding are weak or reduced against the parent protein; the word gives no strength.

By UniProt entry, the sequences of proteins in these tests, tags left out. Residues count along the entry.
UniProt Q9CZ52, residues 31-562: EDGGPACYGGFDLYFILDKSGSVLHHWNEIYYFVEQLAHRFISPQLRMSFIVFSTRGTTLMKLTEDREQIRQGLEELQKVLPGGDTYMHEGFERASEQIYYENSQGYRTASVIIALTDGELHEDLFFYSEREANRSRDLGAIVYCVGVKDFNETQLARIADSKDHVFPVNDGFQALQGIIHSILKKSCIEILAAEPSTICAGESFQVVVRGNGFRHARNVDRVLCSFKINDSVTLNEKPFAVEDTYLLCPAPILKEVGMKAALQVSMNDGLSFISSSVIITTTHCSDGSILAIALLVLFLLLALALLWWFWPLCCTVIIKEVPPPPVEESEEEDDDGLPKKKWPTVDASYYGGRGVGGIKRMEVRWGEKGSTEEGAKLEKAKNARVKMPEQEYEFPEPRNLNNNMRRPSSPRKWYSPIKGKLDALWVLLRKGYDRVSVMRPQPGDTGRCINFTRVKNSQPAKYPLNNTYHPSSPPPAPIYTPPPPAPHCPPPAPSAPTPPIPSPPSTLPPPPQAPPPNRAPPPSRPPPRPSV

Molecular target: T1, TGFβ receptor 1 (TGFBR1) (mouse (endogenous in primary cardiac fibroblasts)) (UniProt Q64729)
T1 sequence: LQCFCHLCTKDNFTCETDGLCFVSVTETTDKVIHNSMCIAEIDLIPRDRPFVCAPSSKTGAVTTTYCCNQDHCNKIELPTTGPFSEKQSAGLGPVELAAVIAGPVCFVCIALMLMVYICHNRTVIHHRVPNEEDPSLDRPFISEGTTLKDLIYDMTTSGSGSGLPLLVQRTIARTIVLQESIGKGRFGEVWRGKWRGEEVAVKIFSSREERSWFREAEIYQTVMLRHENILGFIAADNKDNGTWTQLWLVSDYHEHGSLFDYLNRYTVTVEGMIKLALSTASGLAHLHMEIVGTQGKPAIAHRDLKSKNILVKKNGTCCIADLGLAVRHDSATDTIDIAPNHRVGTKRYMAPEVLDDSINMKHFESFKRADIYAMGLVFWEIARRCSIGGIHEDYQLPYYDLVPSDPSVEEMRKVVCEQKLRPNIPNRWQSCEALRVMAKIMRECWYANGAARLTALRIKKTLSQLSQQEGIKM
Assay: co-IP; endogenous proteins in cardiac fibroblast lysate (25 mM Tris pH 7.5, 75 mM NaCl, 0.5% Triton X-100, 10% glycerol); 1 mg protein, 1 ug antibody overnight, Dynabeads Protein G, 5 washes; immunoblot; non-specific IgG as control; both directions

“ANTXR1 (anthrax toxin receptor 1) (from UniProt Q9CZ52 31-562)” was tested, and the binding was “binds”.
